# Source: PubChem BioAssay AID540256 (National Center for Advancing Translational Sciences (NCATS), 2011)
# The whole screen tested about 300,000 compounds, of which about 3,700 (1.2%) were called active. Inconclusive results, whose numbers are uncertain, are shown with a selection of clear calls. Calls come from the whole dose curve; tested in HEK293 cells. Where the call is inconclusive, the potency comes from a doubtful curve fit.
# Assay: qHTS for Inhibitors of binding or entry into cells for Lassa Virus; note: nearly all actives have a fitted effect of over 50% in size
# Details: Lassa virus pseudotype entry inhibition, cell reporter; series mostly up to 37.9 µM
# Potency is the fitted concentration of half-maximal effect.
row,Structure (SMILES),Potency
1,Cc1c(NC(=O)c2cc3ccccc3oc2=O)c(=O)n(-c2ccccc2)n1C,inactive
2,COc1ccc(N(C)S(=O)(=O)c2ccc3c(c2)oc(=O)n3C)cc1,"inconclusive: 29.1 µM [inhibitor, single point]"
3,O=C1CCCN1CC(O)CS(=O)(=O)c1ccccc1 (stereo not given),inactive
4,O=c1[nH]c(/C=C\c2ccc(O)c(O)c2)nc(O)c1[N+](=O)[O-],"inconclusive: 0.631 µM [activator, full curve, poor fit]"
5,CCc1ccc(Nc2cc(=O)n(C3CCCCC3)c(=O)[nH]2)cc1,"inconclusive: 0.501 µM [activator, full curve, poor fit]"
6,O=C(C1CCCCC1)N1CCN(c2nc(-c3ccc(F)cc3)cs2)CC1,inactive
7,Cc1ccsc1C(=O)N1CCCC(CCC(=O)NCc2ccccc2F)C1 (stereo not given),inactive
8,CC(=O)Nc1ccc2nc(NC(=O)c3cccs3)sc2c1,"inconclusive: 35.5 µM [inhibitor, single point]"
9,COc1ccccc1NC(=O)N1CCC(NC(=O)C(Cc2ccccc2F)NC(C)=O)CC1 (stereo not given),inactive
10,COc1cccc(C(=O)NC(=S)NCc2ccco2)c1,"inconclusive: 8.2 µM [inhibitor, partial curve]"
11,C=CCNC(=O)N1CCCC(C(=O)c2cccc(Cl)c2)C1 (stereo not given),"inconclusive: 6.31 µM [inhibitor, single point]"
12,Cc1ccc(NC(=O)c2cnc(N3CCN(c4ccccn4)CC3)c3ccccc23)c(Br)c1,"inconclusive: 35.5 µM [inhibitor, single point]"
13,Cc1onc(-c2ccccc2)c1C(=O)Nc1ccccc1NC(=O)c1c(-c2ccccc2)noc1C,"inconclusive: 7.08 µM [inhibitor, full curve, poor fit]"
14,O=C(Nc1ccn([C@H]2CC[C@@H](CO)O2)c(=O)n1)c1ccccc1,"inconclusive: 3.16 µM [activator, single point]"
15,O=C(NCCN1CCN(c2ccccc2)CC1)Nc1cccc(Cl)c1,"inconclusive: 25.1 µM [inhibitor, single point]"
16,CC(=O)NC(=O)NC(C)Cc1ccccc1 (stereo not given),"inconclusive: 6.31 µM [activator, single point]"
17,COc1ccc(C(=O)NCCN2CCCC2)cc1[N+](=O)[O-],"inconclusive: 5.01 µM [activator, partial curve, poor fit]"
18,O=C(OCC(=O)N1CCc2ccccc21)c1ccccc1,"inconclusive: 22.4 µM [activator, partial curve, poor fit]"
19,O=C(Oc1ccc(OC(=O)N2CCOCC2)cc1)c1ccccc1,inactive
20,COC(=O)c1c(C)[nH]c(C(=O)C(C)OC(=O)c2cc(C)oc2C)c1C (stereo not given),"inconclusive: 35.5 µM [inhibitor, single point]"
21,CC(=O)Nc1nc(-c2ccccc2)nc(-c2ccccc2OC(C)=O)n1,"inconclusive: 18.3 µM [inhibitor, single point]"
22,CCCNC(=O)c1sc2c(c1C(=O)Nc1ccccn1)CCCC2,inactive
23,Cc1ccc(-c2nn(-c3ccccc3)cc2/C=C(\C#N)c2cccc(C#N)c2)o1,"inconclusive: 3.55 µM [activator, full curve, poor fit]"

# Quoted from the results shown (two entries):
row,Structure (SMILES),Potency
18,O=C(OCC(=O)N1CCc2ccccc21)c1ccccc1,"inconclusive: 22.4 µM [activator, partial curve, poor fit]"
19,O=C(Oc1ccc(OC(=O)N2CCOCC2)cc1)c1ccccc1,inactive

# Next part

row,Structure (SMILES),Potency
1,COC(=O)C(NC(=O)c1ccco1)(Nc1nc(C2CC2)cs1)C(F)(F)F (stereo not given),inactive
2,Cc1ccccc1-c1nnc(SCC(=O)N(C)C2CCCCC2)o1,inactive
3,COc1ccc(CCNC(=O)C2CCN(c3nc4ccccc4nc3C(F)(F)F)CC2)c(OC)c1,inactive
4,CCN(c1ccccc1)S(=O)(=O)c1ccc(Cl)c(C(=O)O)c1,inactive
5,O=C(CN(Cc1ccc(Br)cc1)S(=O)(=O)c1ccccc1)NCC1CCCO1 (stereo not given),inactive
6,O=C(/C=C/c1ccccc1Br)c1ccc2c(c1)OCO2,"inconclusive: 20 µM [inhibitor, partial curve, poor fit]"
7,CC1(C)CC(C(CC(=O)O)c2ccccc2)CCO1 (stereo not given),inactive
8,COc1ccc(CCNC(=O)CSCc2c(F)cccc2Cl)cc1OC,"inconclusive: 22.4 µM [inhibitor, single point]"
9,CC1CC(C)CN(S(=O)(=O)c2ccc(C(=O)NCc3ccc4c(c3)OCO4)cc2)C1 (stereo not given),"inconclusive: 20.6 µM [inhibitor, partial curve, poor fit]"
10,CCc1ccc(NS(=O)(=O)c2c(C)nc3sc(CC)nn3c2=O)cc1,inactive
11,CCN(CC)S(=O)(=O)c1ccc(-c2ccc(S(=O)(=O)N(CC)CC)cc2)cc1,"inconclusive: 8.2 µM [inhibitor, partial curve]"
12,COc1ccc(OCC(=O)NC2CC(=O)N(c3ccc4c(c3)OCCO4)C2)cc1 (stereo not given),inactive
13,CCCc1ccc2oc(C(=O)NCCc3cnn(C)c3)c(C)c2c1,"inconclusive: 31.6 µM [inhibitor, single point]"
14,CCOC(=O)C1=C(CNCCOc2ccc(OC)cc2)NC(=O)NC1c1ccc2c(c1)OCO2 (stereo not given),inactive
15,O=C(c1cccc(NS(=O)(=O)c2ccc(F)c(F)c2)c1)N1CCN(C(c2ccccc2)c2ccccc2)CC1,"inconclusive: 35.5 µM [inhibitor, partial curve, poor fit]"
16,O=C(O)CCC(=O)Nc1cccc(-c2csc(-c3ccccc3)n2)c1,"inconclusive: 17.8 µM [inhibitor, single point]"
17,Cc1ccc(NC(=O)c2ccccc2F)cc1S(=O)(=O)N1CCCCCC1,"inconclusive: 20 µM [inhibitor, partial curve, poor fit]"
18,COc1ccc(C2C(C(N)=O)=C(C)Nc3nc(-c4cccc(Cl)c4)nn32)cc1OC (stereo not given),inactive
19,Cc1nn(-c2ccccc2)c2sc(-c3n[nH]c(=S)o3)cc12,"inconclusive: 6.51 µM [activator, partial curve, poor fit]"
20,Cc1ccccc1C(=O)N1CCN(c2ccc(NC(=O)c3ccc4c(c3)OCCO4)cc2)CC1,"inconclusive: 35.5 µM [inhibitor, single point]"
21,Cc1ccc(S(=O)(=O)Oc2ccccc2C=C2C(=O)N(C)C(=O)N(C)C2=O)cc1,inactive
22,COc1ccc(C(=O)NC2CCCc3c2cnn3-c2cccc(C)c2C)c(OC)n1 (stereo not given),"inconclusive: 1.26 µM [inhibitor, full curve, poor fit]"
